Counter-ions that a name gives are not always drawn. The list shows a part of the results. Repeats in this data set agree poorly, so a single value says little.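 A screen tested FDA-approved drugs combined with one-eighth-MIC colistin against a clinical mcr-1-positive, multidrug-resistant E. coli isolate, measuring OD600 at 24 h. Controls were untreated bacteria (growth) and broth alone (blank). An OD600 under 0.2 marked a combination as active.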
Tested on: Escherichia coli 42 (mcr-1-positive clinical isolate)
Experiment: OD600 after 24 h growth with compound plus colistin (absorbance units (OD600)); higher = more bacterial growth (less inhibition)
Conditions: first compound 25 µM; colistin concentration 0.5 ug/mL; incubation time 24 h; 37 °C

Compound	OD600
CCS(=O)(=O)CCn1c([N+](=O)[O-])cnc1C [Tinidazole] + CCC(C)CCCC(=O)N[C@@H](CCN)C(=O)N[C@H](C(=O)N[C@@H](CCN)C(=O)N[C@H]1CCNC(=O)[C@H]([C@@H](C)O)NC(=O)[C@H](CCN)NC(=O)[C@H](CCN)NC(=O)[C@H](CC(C)C)NC(=O)[C@@H](CC(C)C)NC(=O)[C@H](CCN)NC1=O)[C@@H](C)O [colistin]	inactive: 1.1
CC(=O)c1c(C)c2cnc(Nc3ccc(N4CCNCC4)cn3)nc2n(C2CCCC2)c1=O [Palbociclib monohydrochloride] + CCC(C)CCCC(=O)N[C@@H](CCN)C(=O)N[C@H](C(=O)N[C@@H](CCN)C(=O)N[C@H]1CCNC(=O)[C@H]([C@@H](C)O)NC(=O)[C@H](CCN)NC(=O)[C@H](CCN)NC(=O)[C@H](CC(C)C)NC(=O)[C@@H](CC(C)C)NC(=O)[C@H](CCN)NC1=O)[C@@H](C)O [colistin]	inactive: 1
CN(C)CC/C=C1/c2ccccc2COc2ccc(CC(=O)O)cc21 [Olopatadine hydrochloride] + CCC(C)CCCC(=O)N[C@@H](CCN)C(=O)N[C@H](C(=O)N[C@@H](CCN)C(=O)N[C@H]1CCNC(=O)[C@H]([C@@H](C)O)NC(=O)[C@H](CCN)NC(=O)[C@H](CCN)NC(=O)[C@H](CC(C)C)NC(=O)[C@@H](CC(C)C)NC(=O)[C@H](CCN)NC1=O)[C@@H](C)O [colistin]	inactive: 1.17
Clc1ccc(COC(Cn2ccnc2)c2ccc(Cl)cc2Cl)cc1 (centres undefined) [Econazole] + CCC(C)CCCC(=O)N[C@@H](CCN)C(=O)N[C@H](C(=O)N[C@@H](CCN)C(=O)N[C@H]1CCNC(=O)[C@H]([C@@H](C)O)NC(=O)[C@H](CCN)NC(=O)[C@H](CCN)NC(=O)[C@H](CC(C)C)NC(=O)[C@@H](CC(C)C)NC(=O)[C@H](CCN)NC1=O)[C@@H](C)O [colistin]	inactive: 0.859

Source: the supplement of paper PMC11546906
